Laboratory results published in PubChem BioAssay AID504467 (National Center for Advancing Translational Sciences (NCATS), 2011).
The campaign covered roughly 330,000 compounds. About 7,700 (2.3%) were called active. Inconclusive means that the source gave no clear call. Such entries were picked first, then a sample of the others. Calls come from the whole dose curve; as a rule, active = well fitted inhibition curve with a large enough effect; inconclusive = small, poorly fitted or top-dose-only effect, or effect the other way; inactive = flat fitted curve, though single readings scatter. Potencies of inconclusive entries are doubtful fits and often do not repeat.

Test: qHTS screen for small molecules that inhibit ELG1-dependent DNA repair in human embryonic kidney (HEK293T) cells expressing luciferase-tagged ELG1; note: nearly all actives have a fitted effect of over 55% in size
Conditions: HEK293T ELG1-luciferase reporter, luminescence, 16 h, DNA damage induced by 5-fluorouridine; series mostly up to 46.1 µM
Procedure, shortened: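 Overnight (16 hr) co-exposure of 2,000 cells/well to 5-fluorouridine and compound at 37 °C preceded detection. Luciferase was quantified via ONE-Glo luminescence; loss of signal denotes inhibition.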
Potency is the fitted concentration of half-maximal effect.

SMILES	Potency
O=C(CSc1nnc(C2CCCCC2)o1)Nc1ccccc1Cl	inconclusive: 20.6 µM [activator, partial curve]
COc1ccc2[nH]c3c(c2c1)CCN1C(=O)C(CC(=O)NC(C)(C)C)C[C@H](C(=O)N2CCCCC2)[C@@]31CCc1ccccc1 (some centres undefined)	inconclusive: 13 µM [inhibitor, partial curve, poor fit]
CC(=O)Nc1ccc(NC(=O)C(Sc2ccccc2)c2ccccc2)cc1 (centres undefined)	inconclusive: 20.6 µM [activator, single point]
Cc1ccc(C(=O)OCC(=O)NC2CCCCCC2)c(C)c1	inactive
COC(=O)CN(c1ccccc1)S(=O)(=O)c1ccc(F)cc1	inactive
CCCN1CCN(c2ncnc3scc(C4COc5ccccc5O4)c23)CC1 (centres undefined)	inconclusive: 29.1 µM [inhibitor, single point]
CN(C)S(=O)(=O)c1ccc(N2CCCC2)c(C(=O)Nc2nc(-c3cc(F)ccc3F)cs2)c1	inconclusive: 18.4 µM [inhibitor, partial curve, poor fit]
Cn1c(C(=O)NC2CCCCC2)cc2c(=O)n3ccccc3nc21	inconclusive: 5.8 µM [activator, single point]
Cc1cc2oc(C(=O)N(Cc3ccccc3)C3CCS(=O)(=O)C3)cc(=O)c2cc1Cl (centres undefined)	inconclusive: 18.4 µM [inhibitor, partial curve]
COc1cc(OC)cc(C(=O)N[C@H](C(=O)OCC(=O)c2c[nH]c3ccccc23)C(C)C)c1	active: 20.6 µM
Cc1cc(C)n2nc(C(=O)OCC(=O)c3ccccc3)nc2n1	inconclusive: 20.6 µM [activator, single point]
COc1ccc(CC(=O)Nc2c(C(N)=O)oc3ccccc23)cc1	inactive
Cc1cc(C)n(-c2nnc(N3CCN(c4ccc(F)cc4)CC3)nn2)n1	inactive
O=C(NCc1ccc(N2CCCC2=O)cc1)Nc1cccc(Cl)c1	inconclusive: 20.6 µM [inhibitor, single point]
Cc1cc(C)c2c(CN3CCN(C/C=C/c4ccccc4)CC3)cc(=O)oc2c1	inconclusive: 29.1 µM [inhibitor, single point]
CC(=O)NN1C(=O)/C(=C2/Sc3ccc(Cl)cc3N2C)SC1=S	inactive
CC(=O)NS(=O)(=O)c1ccc(NC(=O)c2ccc(S(=O)(=O)N3CCCC3)cc2)cc1	inactive
O=C(c1cccs1)n1nc(-c2ccccc2)nc1NCc1ccc(F)cc1	inactive
CC(=O)Cc1nsc(Nc2ccc3c(c2)OCCO3)n1	inconclusive: 7.31 µM [activator, partial curve]

3 structures from above, ordered by SMILES length, falling.
SMILES	Potency
CC(=O)NS(=O)(=O)c1ccc(NC(=O)c2ccc(S(=O)(=O)N3CCCC3)cc2)cc1	inactive
Cc1cc2oc(C(=O)N(Cc3ccccc3)C3CCS(=O)(=O)C3)cc(=O)c2cc1Cl (centres undefined)	inconclusive: 18.4 µM [inhibitor, partial curve]
COC(=O)CN(c1ccccc1)S(=O)(=O)c1ccc(F)cc1	inactive
